This passage reports AC50 and cell number change results from PubChem BioAssay AID2685 (National Center for Advancing Translational Sciences (NCATS), 2010).

This assay in a line: qHTS Assay for Lipid Storage Modulators in Drosophila S3 Cells.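 As to cell number change: cells counted by Cell Tracker Red CMTPX staining in the red channel.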 The following applies: BODIPY lipid droplet fluorescence, 18-24 h; for cell number change: measured here: cell count max response, cells fed with added oleic acid. The method, boiled down: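 Drosophila S3 cells loaded with oleic acid (400 uM, as added) and compounds at several concentrations; lipid droplets imaged by 488-nm laser-scanning cytometry, 500–530 nm intensity and object ratio to cell channel. Percent activity normalized to 20 uM Triacsin C.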
(In qHTS, concentration-response curves come from the screen itself.)

Setting [1] is: measured here: cell number channel AC50, cells fed with added oleic acid.
Setting [2] is: measured here: lipid fluorescence (Fed channel) AC50, cells fed with added oleic acid.

This is one part of the list. These are further read-outs of the screen, such as a control signal, another cell line or another target. No call is given for them. Compounds called inactive in the main read-out are mostly missing here. The note in brackets gives the kind of curve behind each potency; many fits are weak.

In the case of `O=C(Nc1ccc(-c2noc(CCc3ccccc3)n2)cc1)c1cccnc1`, the concentration at half-maximal activity (AC50) by setting is: under setting [1], 2.91 µM [rising, partial curve]; under setting [2], 0.103 µM [rising, full curve, poor fit].
Take `c1ccc(-n2nnnc2Cc2nnnn2-c2ccccc2)cc1`: the cell number change was -29%. For the same compound, the half-maximal activity concentration (AC50) under setting [1] is 4.11 µM [falling, full curve, poor fit]. For the same compound, under setting [2], the AC50 is 16.4 µM [falling, single point].
Consider `CN(C(=O)COC(=O)c1cccc(S(=O)(=O)N2CCCCCC2)c1)C1CCS(=O)(=O)C1` (stereo not drawn), for which the cell number change was -46.5%. In addition, the AC50 under setting [1] was 29.1 µM [falling, single point].
Take `CCOC(=O)N1CCN(S(=O)(=O)c2ccc(C)c(C)c2C)CC1`: the cell number change was found to be 41.3%. Moreover, the AC50 under setting [1] is 29.1 µM [rising, single point].
On to `CCC(=O)N1C(C(=O)O)CSC1c1ccc(OC)cc1` (stereo not drawn), for which the cell number change stood at 3.05%. The AC50 under setting [2] was 3.26 µM [rising, single point].
Consider `COC(=O)c1sccc1NC(=O)CSc1ccccc1NS(=O)(=O)c1ccc(Br)cc1`, for which the cell number change came to 130%. The AC50 under setting [1] was 20.6 µM [rising, partial curve]. Moreover, under setting [2], the AC50 is 29.1 µM [rising, single point].
Regarding `O=C(N/N=C1\CCSc2ccc(F)cc21)c1cccnc1`, the cell number change is 2.98%. The AC50 under setting [2] is 6.51 µM [rising, single point].
As to `CC(=O)N[C@@H]1c2c(ccc3ccccc23)OC[C@@H]1COC(C)=O`, the cell number change is -51.5%. Also, the half-maximal activity concentration (AC50) under setting [1] was 3.26 µM [falling, partial curve, poor fit]. Besides, under setting [2], the AC50 is 6.51 µM [falling, partial curve, poor fit].
Turning to `Cc1cccc(Nc2cc(C)c3c(O)cccc3n2)c1C`, the cell number change is -82.7%. The AC50 under setting [1] is 14.6 µM [falling, partial curve]. Under setting [2], the concentration at half-maximal activity (AC50) was 13 µM [falling, partial curve].
`CCCc1[nH]nc2c1C(c1ccc(OC)c(Cn3nc(C)c(Br)c3C)c1)C(C#N)=C(N)O2` (stereo not drawn): the cell number change was -74.7%. Moreover, the AC50 under setting [1] is 29.1 µM [falling, single point]. In addition, under setting [2], the AC50 was 0.291 µM [rising, full curve, poor fit].
`CS(=O)(=O)c1ccccc1-c1nc(-c2cccc(Cl)c2)no1`: the cell number change was found to be 7.69%.
In the case of `COc1cc(Cl)c(C)cc1NC(C)C(=O)Nc1cc(C(F)(F)F)ccc1N1CCOCC1` (stereo not drawn), the cell number change worked out at 32%. Under setting [1], the concentration at half-maximal activity (AC50) was 5.8 µM [rising, partial curve].
Turning to `Nc1nonc1N1CCCCC1`, the cell number change was -109%. Moreover, the AC50 under setting [2] was 29.1 µM [falling, partial curve].
Turning to `CCCCNC(=O)[C@H]1C[C@H]1[C@@H](O)[C@H](CO)NC(=O)[C@H](CC(C)C)NC(=O)OC(C)(C)C`, the cell number change turned out to be 18%.
Still for that read-out and setting: to `Cc1ccc(-n2c(C)cc(C(=O)CSc3n[nH]c(N)n3)c2C)cc1` belongs 0.297%.
`COc1ccc(NC(=O)CN2C(=O)C(C)Oc3ccccc32)c(OC)c1` (stereo not drawn): the cell number change amounted to 45.1%. The AC50 under setting [1] is 29.1 µM [rising, single point].
In the case of `Cc1ccc(SCCC(=O)N2CCN(S(=O)(=O)c3ccccc3)CC2)cc1`, the cell number change was -10.7%.
As for `O=C(NCc1ccco1)c1ccc2c(c1)C(=O)N(C1CCCCC1)C2=O`, the cell number change came out at 45.6%. The AC50 under setting [2] is 29.1 µM [rising, single point].
As for `COc1ccc(NC(=O)C(=O)c2cn(CC(=O)N3CCOCC3)c3ccccc23)cc1OC`, the cell number change was -3.54%. Also, under setting [2], the AC50 was 6.51 µM [rising, single point].
With `Cc1cc2c(cc1C)NC(c1nc3ccccc3[nH]1)C1=C(CC(C)(C)CC1=O)N2` (stereo not drawn), the cell number change was -12.7%.
For the compound `CN(CC(=O)Nc1c(Cl)cccc1Cl)C(=O)CNC(=O)c1ccc2c(c1)OCO2`, the AC50 under setting [2] is 0.0651 µM [rising, full curve, poor fit].
Consider `COc1ccc(CN(C(=O)c2oc3cc(C)c(C)cc3c2C)C2CCS(=O)(=O)C2)cc1OC` (stereo not drawn), for which the cell number change was -36.2%. The AC50 under setting [1] is 23.1 µM [falling, single point]. Also, the AC50 under setting [2] was 10.3 µM [falling, partial curve].
On to `CC1CN(c2cc3nccnc3cc2F)CC(C)O1` (stereo not drawn), for which the cell number change is 21%.
Consider `CC(/C=N\N1CCN(Cc2ccc(C)cc2)CC1)=C\c1ccccc1`, for which the cell number change was -12%. Besides, under setting [2], the half-maximal activity concentration (AC50) was 20.6 µM [falling, single point].
As for `O=c1c2ccccc2nc(-c2ccccc2Cl)n1O`, the cell number change is -3%. Also, the AC50 under setting [1] was 0.517 µM [falling, full curve].
On to `O=C(CN1CCN(c2ccc(F)cc2)CC1)Nc1ccccc1C(=O)NCCc1ccccc1`, for which the cell number change is 46.3%. In addition, the AC50 under setting [1] is 11.6 µM [rising, partial curve, poor fit]. Further, the concentration at half-maximal activity (AC50) under setting [2] is 10.3 µM [rising, partial curve].
`O=C(c1ccccc1)C1CCN(C(=O)c2ccc(Cl)cc2)CC1`: the cell number change is -23.9%.
In the case of `COc1ccc(N2CCN(S(=O)(=O)c3ccc(-n4cnnn4)c(C)c3)CC2)cc1`, the cell number change was 43.5%. In addition, the AC50 under setting [1] was 29.1 µM [rising, single point]. Besides, the concentration at half-maximal activity (AC50) under setting [2] was 14.6 µM [rising, partial curve].
Take `CCN(CC)c1ccc(Nc2nc(N3CCOCC3)c3ccccc3n2)cc1`: the cell number change was -80.5%. Besides, the concentration at half-maximal activity (AC50) under setting [1] is 14.6 µM [falling, single point]. For the same compound, the AC50 under setting [2] was 25.9 µM [falling, single point].
As for `O=C(CO/N=C/c1ccccc1OC(F)F)N1CCc2ccccc21`, the cell number change is 2.37%.
As for `CCn1c(SCC(=O)Nc2nc(C)cs2)nnc1C(C)NC(=O)c1ccccc1` (stereo not drawn), the cell number change is -7.23%. For the same compound, the AC50 under setting [2] was 6.51 µM [falling, single point].
Regarding `CCC(=O)N1CCN(c2ccccc2NC(=O)COc2cc(C)ccc2C(C)C)CC1`, the cell number change was -37.4%. Moreover, the AC50 under setting [1] is 11.6 µM [falling, partial curve].
`Cc1c(CCC(C)C)c(=O)n2c([nH]c3ccccc32)c1C#N`: the cell number change came to 8.66%. Also, the half-maximal activity concentration (AC50) under setting [2] is 3.66 µM [rising, single point].
As for `Cc1cccc(Nc2nn3c(=O)c4ccccc4nc3s2)c1`, the cell number change was -20.6%. For the same compound, the half-maximal activity concentration (AC50) under setting [2] is 4.11 µM [rising, partial curve].
With `CCCCCn1c(=O)[nH]c2cc(C(=O)NCc3ccco3)ccc2c1=O`, the cell number change is -69.5%. For the same compound, under setting [1], the concentration at half-maximal activity (AC50) is 25.9 µM [falling, single point]. Besides, under setting [2], the AC50 is 0.731 µM [falling, partial curve, poor fit].
As to `Cc1cc(N=Nc2ccccc2C(=O)O)c(C)c(C)c1O`, the cell number change is -1.68%.
For the compound `O=C(/C=C/c1ccccc1)N(c1ccccn1)C1CCCCC1`, the AC50 under setting [2] is 14.6 µM [rising, partial curve].
Take `CN(CC(=O)NCc1ccncc1)S(=O)(=O)c1cc(Cl)ccc1Cl`: the cell number change worked out at 32.9%. The AC50 under setting [2] is 29.1 µM [rising, single point].
As to `Cc1cc(C(=O)NC2CCCc3c2cnn3-c2cccc(C)c2C)n(C)n1` (stereo not drawn), under setting [2], the half-maximal activity concentration (AC50) is 0.731 µM [falling, partial curve, poor fit].
Regarding `COc1ccc(C(=O)NN2CCOCC2)cc1[N+](=O)[O-]`, the cell number change was -18.5%. Further, under setting [2], the AC50 was 3.98 µM [falling, single point].
For the compound `CCOC(=O)C(=CNc1cc(C)nn1-c1ccc(Cl)cc1)C(=O)OCC`, the cell number change amounted to 23.9%. Further, the concentration at half-maximal activity (AC50) under setting [1] is 1.64 µM [rising, partial curve]. Further, the AC50 under setting [2] was 6.51 µM [rising, partial curve, poor fit].
With `C[C@H]1CN=C(N(C)C)N1CCCC1CCCC1`, the cell number change came to 14.4%. Moreover, the AC50 under setting [1] was 0.082 µM [falling, full curve, poor fit]. Also, the AC50 under setting [2] was 0.116 µM [falling, full curve, poor fit].
Take `Cc1cc(Cl)ccc1OCC(=O)NNC(=O)c1ccco1`: the cell number change was -13.8%.
As to `CNc1ccc(C(=O)c2ccccc2C(=O)O)cc1[N+](=O)[O-]`, the cell number change came to 31.5%. Moreover, the AC50 under setting [1] is 0.092 µM [falling, full curve, poor fit].
Regarding `CN(C(=O)COC(=O)c1ccccc1SCC(=O)N1CCCC1)C1(C#N)CCCCC1`, the cell number change is -21.6%. Besides, under setting [2], the half-maximal activity concentration (AC50) is 1.64 µM [rising, partial curve].
For the compound `COC1CCCN(C(=O)c2ccc3oc(Cc4ccc(Cl)cc4)nc3c2)C1` (stereo not drawn), the cell number change turned out to be 34.6%. Moreover, the AC50 under setting [1] is 23.1 µM [rising, single point]. The half-maximal activity concentration (AC50) under setting [2] is 1.03 µM [rising, single point].
With `COc1ccc(C(=O)CSc2n[nH]c(=O)[nH]c2=O)cc1`, the cell number change came out at 17.2%.
Consider `Cc1ccc(-c2cc(-c3ccc4c(c3)OCO4)c(C#N)c(N)n2)o1`, for which the cell number change is -12.4%.
The same measure, in the same setting: to `CCCS(=O)(=O)N1CCCC(C(=O)NCCN2CCOCC2)C1` (stereo not drawn) belongs 6.28%.
In the case of `COc1ccc2cc(C3(C)NC(=O)NC3=O)ccc2c1` (stereo not drawn), the cell number change amounted to 0.628%. For the same compound, the AC50 under setting [2] is 4.11 µM [rising, single point].
On to `Cc1ccc(S(=O)(=O)c2c(C)c(C)c(C)[nH]c2=O)cc1`, for which the cell number change is 20.6%. In addition, under setting [2], the concentration at half-maximal activity (AC50) is 3.66 µM [rising, full curve, poor fit].
With `Cc1ccc2cc(C#N)c(SCC(=O)Nc3ccc4sc(C)nc4c3)nc2c1`, the cell number change was 48.7%. In addition, under setting [1], the AC50 was 5.8 µM [rising, full curve]. Further, the AC50 under setting [2] is 6.51 µM [rising, single point].
As for `CC1CCc2c(sc3ncnc(SCC(=O)Nc4ccc(C(=O)O)cc4)c23)C1` (stereo not drawn), the cell number change was -1.28%. For the same compound, the concentration at half-maximal activity (AC50) under setting [2] is 5.17 µM [rising, single point].
Turning to `Cc1cc(C(=O)COC(=O)c2ccc3c(c2)NC(=O)CS3)c(C)n1CCc1ccc(Cl)cc1`, the cell number change worked out at 36%. Further, under setting [1], the AC50 is 1.3 µM [rising, full curve, poor fit].
For `Cc1ccccc1NC(=S)Nc1cccc2cnccc12`, the cell number change is 7.51%. Besides, the AC50 under setting [2] was 29.1 µM [rising, single point].
In the case of `CS(=O)(=O)N(CC(=O)N1CCc2ccccc2C1)c1ccc2c(c1)OCO2`, the cell number change is 1.08%. The concentration at half-maximal activity (AC50) under setting [2] was 2.91 µM [rising, partial curve].
Consider `COc1ccccc1OCC(=O)NCC1CCCN(C(=O)c2ccccc2C(C)=O)C1` (stereo not drawn), for which the cell number change came out at 6.93%.
Still for that read-out and setting: to `COc1ccc(Br)cc1CNCC1CCCO1` (stereo not drawn) belongs -0.88%.
As to `Cc1noc(C)c1S(=O)(=O)N1CCC(C(=O)O)CC1`, the cell number change was -17.5%. Moreover, the AC50 under setting [2] was 0.00461 µM [falling, full curve, poor fit].
Regarding `COC(Cc1nnc(SC)n1-c1ccccc1)OC`, the cell number change stood at 51.4%. Moreover, the AC50 under setting [1] is 10.3 µM [rising, partial curve, poor fit].
As to `C/C(=N\NC(=O)c1cccc(F)c1)c1ccc(Br)s1`, the cell number change was found to be 6.98%. The AC50 under setting [2] was 10.3 µM [rising, partial curve].

Broadly, the AC50 is the concentration at which the activity in the assay is half-maximal.
